Reference: patent publication US4310660A, “Lincomycin compounds” (The Upjohn Company, priority 1980, dated 1982)
In brackets after ≈: the same amount, converted by molar mass. Read-outs that look alike come from different tables or passages of the source.

How the values were obtained:
[1] = test system: Staphylococcus aureus; assay: MIC vs. aerobic bacteria, microplate broth-dilution (BHI); format: cell-based
[2] = test system: Pseudomonas aeruginosa; assay: as above; format: cell-based; settings: UC95, UC 95, read-out: Minimal Inhibitory Concentration (MIC)
Method: (§1) The Minimal Inhibitory Concentration (MIC's) of both compounds Vs. aerobic bacteria is determined using a standard microplate broth-dilution method. Brain Heart Infusion (BHI-Difco) broth medium is used, and the plates are incubated at 37° C. for 20 hrs.

[3] = test system: Streptococcus viridans; assay: as above; format: cell-based
Method: as §1

[4] = test system: Klebsiella pneumoniae; assay: as above; format: cell-based; settings: UC58, UC 58, read-out: Minimal Inhibitory Concentration (MIC)
Method: as §1

[5] = test system: Salmonella schottmuelleri; assay: as above; format: cell-based; settings: UC126, read-out: Minimal Inhibitory Concentration (MIC), UC 126
Method: as §1

[6] = test system: Streptococcus pyogenes; assay: as above; format: cell-based; settings: UC152, UC 152, read-out: Minimal Inhibitory Concentration (MIC)
Method: as §1

[7] = test system: Diplococcus pneumoniae; assay: as above; format: cell-based; settings: Streptococcus pneumoniae, read-out: Minimal Inhibitory Concentration (MIC)
Method: as §1

[8] = test system: Escherichia coli; assay: as above; format: cell-based; settings: UC45, UC 45, read-out: Minimal Inhibitory Concentration (MIC)
Method: as §1

[9] = test system: Staphylococcus epidermidis; assay: as above; format: cell-based
Method: as §1

[10] = test system: Proteus vulgaris; assay: as above; format: cell-based; settings: UC93, UC 93, read-out: Minimal Inhibitory Concentration (MIC)
Method: as §1

[11] = test system: K. pneumoniae; assay: Mouse Protection Test; format: in vivo; settings: Klebsiella pneumoniae, 168 h; route not given; once per day for 4 days; read-out: CD50 (median protective dose)
From the text: (§2) Immediately before use, the suspensions were thawed quickly and properly diluted. Infection was via the intrapertioneal route.
(§3) Treatment of the infected groups was begun immediately and continued once per day for 4 days (first 24 hr period=1). Groups of untreated mice served as virulence controls for the culture.
(§4) Seven days after the treatment regimen was begun the surviving animals were sacrificed and the median protective dose of the antibiotic calculated on the basis of mortality rates in the treatment groups. The median protective dose and its 95% confidence interval were calculated according to the method of Spearmen & Karber as programmed on a 360 digital computer.

[12] = test system: S. hemolyticus; assay: Mouse Protection Test; format: in vivo; settings: once per day for 4 days, 95% confidence interval; for ED50: 168 h, read-out: CD50 (median protective dose)
From the text: as §2, §3, §4

[13] = test system: S. aureus; assay: Mouse Protection Test; format: in vivo; settings: Staphylococcus aureus, 168 h, read-out: CD50 (median protective dose)
From the text: as §2, §3, §4

CCC[C@@H]1C[C@@H](C(=O)N[C@@H]([C@H]2O[C@H](SC)[C@H](O)[C@@H](O)[C@H]2O)[C@H](C)Cl)N(C)C1 [Clindamycin, reference compound]
MIC ([1]; UC76, S. aureus UC 76, read-out: Minimal Inhibitory Concentration (MIC)): 0.05 µg/mL (≈ 0.118 µM) | MIC ([1]; UC570, S. aureus UC 570, read-out: Minimal Inhibitory Concentration (MIC)): 0.2 µg/mL (≈ 0.471 µM) | MIC ([1]; UC571, S. aureus UC 571, read-out: Minimal Inhibitory Concentration (MIC)): 0.2 µg/mL (≈ 0.471 µM) | MIC ([1]; UC746, S. aureus UC 746, read-out: Minimal Inhibitory Concentration (MIC)): < 0.05 µg/mL | MIC ([1]; UC6675, S. aureus UC 6675, read-out: Minimal Inhibitory Concentration (MIC)): 0.05 µg/mL (≈ 0.118 µM) | MIC ([1]; UC6685, S. aureus UC 6685, read-out: Minimal Inhibitory Concentration (MIC)): > 25 µg/mL | MIC ([1]; UC6686, S. aureus UC 6686, read-out: Minimal Inhibitory Concentration (MIC)): 0.05 µg/mL (≈ 0.118 µM) | MIC ([1]; UC6688, S. aureus UC 6688, read-out: Minimal Inhibitory Concentration (MIC)): > 25 µg/mL | MIC ([1]; UC6689, S. aureus UC 6689, read-out: Minimal Inhibitory Concentration (MIC)): 0.05 µg/mL (≈ 0.118 µM) | MIC ([1]; UC6691, S. aureus UC 6691, read-out: Minimal Inhibitory Concentration (MIC)): 0.1 µg/mL (≈ 0.235 µM) | MIC ([1]; UC6692, S. aureus UC 6692, read-out: Minimal Inhibitory Concentration (MIC)): > 25 µg/mL | MIC ([1]; UC6693, S. aureus UC 6693, read-out: Minimal Inhibitory Concentration (MIC)): 0.05 µg/mL (≈ 0.118 µM) | MIC ([1]; UC6694, S. aureus UC 6694, read-out: Minimal Inhibitory Concentration (MIC)): > 25 µg/mL | MIC ([1]; UC6695, S. aureus UC 6695, read-out: Minimal Inhibitory Concentration (MIC)): 0.1 µg/mL (≈ 0.235 µM) | MIC ([1]; UC6696, S. aureus UC 6696, read-out: Minimal Inhibitory Concentration (MIC)): 0.1 µg/mL (≈ 0.235 µM) | MIC [2]: > 50 µg/mL | MIC ([3]; UC153, UC 153, read-out: Minimal Inhibitory Concentration (MIC)): ≤ 0.012 µg/mL | MIC ([3]; UC871, UC 871, read-out: Minimal Inhibitory Concentration (MIC)): ≤ 0.012 µg/mL | MIC [4]: 6.25 µg/mL (≈ 14.7 µM) | MIC [5]: > 50 µg/mL | MIC [6]: ≤ 0.012 µg/mL | MIC ([7]; UC41, Diplococcus pneumoniae I, UC 41): ≤ 0.012 µg/mL | MIC ([7]; UC3213, Diplococcus pneumoniae II, UC 3213): ≤ 0.012 µg/mL | MIC [8]: 50 µg/mL (≈ 118 µM) | MIC ([9]; UC719, UC 719, read-out: Minimal Inhibitory Concentration (MIC)): 0.1 µg/mL (≈ 0.235 µM) | MIC ([9]; UC3389, UC 3389, read-out: Minimal Inhibitory Concentration (MIC)): 0.1 µg/mL (≈ 0.235 µM) | MIC [10]: > 50 µg/mL | ED50 [11]: > 320 mg/kg | ED50 ([12]; po, oral): 12.3 mg/kg | ED50 ([12]; sc, subcut., two experiments listed): 2.3 mg/kg | CD50 (median protective dose) ([12]; subcut., two experiments listed, 10080 min): 3.3(2.6-4.2) mg/kg | ED50 ([13]; oral, once per day for 4 days, 95% confidence interval): 12.3 mg/kg | ED50 ([13]; sc): 5.7 mg/kg
